Laboratory results taken from the supplement of paper PMC8728848.
The list shows a part of the results.

Tests used:
Experiment in all cases: glycan array binding signal (z-score within array); higher = stronger binding
Conditions in all cases: glycan notation: IUPAC condensed, linker removed; mutation: Y54A
[1] = molecular target: Neu5Ac(a2-6)Gal(b1-4)GlcNAc(b1-3)Gal(b1-4)GlcNAc(b1-3)Gal(b1-4)GlcNAc
Method in brief: (§1)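 Glycan array binding is given as a within-array Z-score, which can be read as non-binding when negative. The arrays, 3228 of them, came from the Consortium for Functional Glycomics database and were retained only where the protein sequence was available. Z-scores were averaged across arrays of the same protein sequence at different concentrations or buffers and across linkers.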

[2] = molecular target: Neu5Ac(a2-6)Gal(b1-4)GlcNAc(b1-3)Gal(b1-4)GlcNAc(b1-3)Gal(b1-4)GlcNAc(b1-2)Man(a1-3)[Neu5Ac(a2-6)Gal(b1-4)GlcNAc(b1-3)Gal(b1-4)GlcNAc(b1-3)Gal(b1-4)GlcNAc(b1-2)Man(a1-6)]GalNAc
Method in brief: as §1

[3] = molecular target: Neu5Ac(a2-6)Gal(b1-4)GlcNAc(b1-3)Gal(b1-4)GlcNAc(b1-3)GalNAc
Method in brief: as §1

[4] = molecular target: Neu5Ac(a2-6)Gal(b1-4)GlcNAc(b1-3)Gal(b1-4)GlcNAc(b1-3)[Neu5Ac(a2-6)Gal(b1-4)GlcNAc(b1-3)Gal(b1-4)GlcNAc(b1-6)]GalNAc
Method in brief: as §1

[5] = molecular target: Neu5Ac(a2-6)Gal(b1-4)GlcNAc(b1-3)Gal(b1-4)GlcNAc(b1-6)[Gal(b1-3)]GalNAc
Method in brief: as §1

[6] = molecular target: Neu5Ac(a2-6)Gal(b1-4)GlcNAc(b1-3)Gal(b1-4)[Fuc(a1-3)]GlcNAc(b1-3)Gal(b1-4)[Fuc(a1-3)]GlcNAc
Method in brief: as §1

[7] = molecular target: Neu5Ac(a2-6)Gal(b1-4)GlcNAc(b1-3)GalNAc
Method in brief: as §1

[8] = molecular target: Neu5Ac(a2-6)Gal(b1-4)GlcNAc(b1-3)[Neu5Ac(a2-6)Gal(b1-4)GlcNAc(b1-6)]GalNAc
Method in brief: as §1

[9] = molecular target: Neu5Ac(a2-6)Gal(b1-4)GlcNAc(b1-6)GalNAc
Method in brief: as §1

[10] = molecular target: Neu5Ac(a2-6)Gal(b1-4)GlcNAc(b1-6)[Gal(b1-3)GlcNAc(b1-3)]Gal(b1-4)Glc
Method in brief: as §1

[11] = molecular target: Neu5Ac(a2-6)Gal(b1-4)GlcNAc(b1-6)[Gal(b1-3)]GalNAc
Method in brief: as §1

[12] = molecular target: Neu5Ac(a2-6)Gal(b1-4)GlcNAc6S
Method in brief: as §1

Neu5Ac(a2-6)GalNAc = molecular target: Neu5Ac(a2-6)GalNAc
Method in brief: as §1

[13] = molecular target: Neu5Ac(a2-6)GalNAc(b1-4)GlcNAc
Method in brief: as §1

[14] = molecular target: Neu5Ac(a2-6)GalNAc(b1-4)GlcNAc6S
Method in brief: as §1

[15] = molecular target: Neu5Ac(a2-6)GlcNAc(b1-4)GlcNAc
Method in brief: as §1

[16] = molecular target: Neu5Ac(a2-6)GlcNAc(b1-4)GlcNAc(b1-4)GlcNAc
Method in brief: as §1

Neu5Ac(a2-8)Neu5Ac = molecular target: Neu5Ac(a2-8)Neu5Ac
Method in brief: as §1

[17] = molecular target: Neu5Ac(a2-8)Neu5Ac(a2-3)Gal(b1-3)GalNAc(b1-4)[Neu5Ac(a2-3)]Gal(b1-4)Glc
Method in brief: as §1

[18] = molecular target: Neu5Ac(a2-8)Neu5Ac(a2-3)Gal(b1-3)GalNAc(b1-4)[Neu5Ac(a2-8)Neu5Ac(a2-3)]Gal(b1-4)Glc
Method in brief: as §1

[19] = molecular target: Neu5Ac(a2-8)Neu5Ac(a2-3)Gal(b1-4)Glc
Method in brief: as §1

[20] = molecular target: Neu5Ac(a2-8)Neu5Ac(a2-3)Gal(b1-4)GlcNAc
Method in brief: as §1

[21] = molecular target: Neu5Ac(a2-8)Neu5Ac(a2-3)[Gal(b1-3)GalNAc(b1-4)]Gal(b1-4)Glc
Method in brief: as §1

[22] = molecular target: Neu5Ac(a2-8)Neu5Ac(a2-3)[GalNAc(b1-4)]Gal(b1-4)Glc
Method in brief: as §1

[23] = molecular target: Neu5Ac(a2-8)Neu5Ac(a2-8)Neu5Ac
Method in brief: as §1

[24] = molecular target: Neu5Ac(a2-8)Neu5Ac(a2-8)Neu5Ac(a2-3)Gal(b1-4)Glc
Method in brief: as §1

[25] = molecular target: Neu5Ac(a2-8)Neu5Ac(a2-8)Neu5Ac(a2-3)[Gal(b1-3)GalNAc(b1-4)]Gal(b1-4)Glc
Method in brief: as §1

[26] = molecular target: Neu5Ac(a2-8)Neu5Ac(a2-8)Neu5Ac(a2-3)[GalNAc(b1-4)]Gal(b1-4)Glc
Method in brief: as §1

[27] = molecular target: Neu5Ac(a2-8)Neu5Ac(a2-8)Neu5Ac(a2-8)Neu5Ac(a2-3)[GalNAc(b1-4)]Gal(b1-4)Glc
Method in brief: as §1

[28] = molecular target: Neu5Ac(a2-8)Neu5Gc(a2-3)Gal(b1-4)GlcNAc
Method in brief: as §1

[29] = molecular target: Neu5Ac(b2-6)Gal(b1-4)GlcNAc
Method in brief: as §1

Neu5Ac(b2-6)GalNAc = molecular target: Neu5Ac(b2-6)GalNAc
Method in brief: as §1

[30] = molecular target: Neu5Ac9Ac(a2-3)Gal(b1-3)GlcNAc
Method in brief: as §1

[31] = molecular target: Neu5Ac9Ac(a2-3)Gal(b1-4)GlcNAc
Method in brief: as §1

[32] = molecular target: Neu5Ac9Ac(a2-6)Gal(b1-4)GlcNAc
Method in brief: as §1

[33] = molecular target: Neu5Gc(a2-3)Gal(b1-3)GlcNAc
Method in brief: as §1

[34] = molecular target: Neu5Gc(a2-3)Gal(b1-3)[Fuc(a1-4)]GlcNAc
Method in brief: as §1

Neu5Gc(a2-3)Gal(b1-4)Glc = molecular target: Neu5Gc(a2-3)Gal(b1-4)Glc
Method in brief: as §1

[35] = molecular target: Neu5Gc(a2-3)Gal(b1-4)GlcNAc
Method in brief: as §1

[36] = molecular target: Neu5Gc(a2-3)Gal(b1-4)GlcNAc(b1-3)Gal(b1-4)GlcNAc(b1-2)Man(a1-3)[Neu5Gc(a2-3)Gal(b1-4)GlcNAc(b1-3)Gal(b1-4)GlcNAc(b1-2)Man(a1-6)]Man(b1-4)GlcNAc(b1-4)GlcNAc
Method in brief: as §1

[37] = molecular target: Neu5Gc(a2-3)Gal(b1-4)[Fuc(a1-3)]GlcNAc
Method in brief: as §1

[38] = molecular target: Neu5Gc(a2-6)Gal(b1-4)GlcNAc
Method in brief: as §1

Neu5Gc(a2-6)GalNAc = molecular target: Neu5Gc(a2-6)GalNAc
Method in brief: as §1

[39] = molecular target: Neu5Gc(a2-8)Neu5Ac(a2-3)Gal(b1-4)GlcNAc
Method in brief: as §1

[40] = molecular target: Neu5Gc(a2-8)Neu5Gc(a2-3)Gal(b1-4)GlcNAc
Method in brief: as §1

B1: CBP21 (Serratia marcescens), O83009 (protein)
chain: MNKTSRTLLSLGLLSAAMFGVSQQANAHGYVESPASRAYQCKLQLNTQCGSVQAEPQSVEGLKGFPQAGPADGHIASADKSTFFELDQQTPTRWNKLNLKTGPNSFTWKLTARHSTTSWRYFITKPNWDASQPLTRASFDLTPFCQFNDGGAIPAAQVTHQCNIPADRSGSHVILAVWDIADTANAFYQAIDVNLSK
glycan array binding signal (z-score) [1]: -0.314
glycan array binding signal (z-score) [2]: -0.018
glycan array binding signal (z-score) [3]: -0.371
glycan array binding signal (z-score) [4]: -0.8
glycan array binding signal (z-score) [5]: -1.14
glycan array binding signal (z-score) [6]: 4.6
glycan array binding signal (z-score) [7]: 0.029
glycan array binding signal (z-score) [8]: -0.488
glycan array binding signal (z-score) [9]: -0.287
glycan array binding signal (z-score) [10]: 0.165
glycan array binding signal (z-score) [11]: 0.13
glycan array binding signal (z-score) [12]: 3.37
glycan array binding signal (z-score) (Neu5Ac(a2-6)GalNAc): 1.46
glycan array binding signal (z-score) [13]: 0.867
glycan array binding signal (z-score) [14]: -0.108
glycan array binding signal (z-score) [15]: 0.702
glycan array binding signal (z-score) [16]: -0.564
glycan array binding signal (z-score) (Neu5Ac(a2-8)Neu5Ac): -0.571
glycan array binding signal (z-score) [17]: 0.148
glycan array binding signal (z-score) [18]: 0.171
glycan array binding signal (z-score) [19]: -0.018
glycan array binding signal (z-score) [20]: -0.151
glycan array binding signal (z-score) [21]: -0.051
glycan array binding signal (z-score) [22]: -0.419
glycan array binding signal (z-score) [23]: -0.212
glycan array binding signal (z-score) [24]: 0.027
glycan array binding signal (z-score) [25]: 2.59
glycan array binding signal (z-score) [26]: -0.385
glycan array binding signal (z-score) [27]: -0.249
glycan array binding signal (z-score) [28]: -0.455
glycan array binding signal (z-score) [29]: -0.803
glycan array binding signal (z-score) (Neu5Ac(b2-6)GalNAc): -0.919
glycan array binding signal (z-score) [30]: -0.747
glycan array binding signal (z-score) [31]: 0.493
glycan array binding signal (z-score) [32]: 0.2
glycan array binding signal (z-score) [33]: 0.733
glycan array binding signal (z-score) [34]: 0.939
glycan array binding signal (z-score) (Neu5Gc(a2-3)Gal(b1-4)Glc): -0.09
glycan array binding signal (z-score) [35]: -0.419
glycan array binding signal (z-score) [36]: 2.24
glycan array binding signal (z-score) [37]: -0.108
glycan array binding signal (z-score) [38]: -0.176
glycan array binding signal (z-score) (Neu5Gc(a2-6)GalNAc): -0.069
glycan array binding signal (z-score) [39]: 2.65
glycan array binding signal (z-score) [40]: 1.37
